# Laboratory results published in US20210400977A1, “META-DIAMIDE COMPOUNDS FOR CONTROLLING INVERTEBRATE PESTS” (FMC Corporation, priority 2018, published 2021).
# Some results were stated once for a whole list of compounds, not compound by compound.
# System: fall armyworm (Spodoptera frugiperda (J. E. Smith))
# Assay: Test B: control of fall armyworm, foliar spray on corn (maize) plant
# Assay type: in vivo
# Conditions: sprayed at 50 ppm, assessed after 6 days, value is the feeding damage limit
row,Structure (SMILES),control efficacy (40% or less feeding damage and/or 100% mortality) [%]
1,COCC(=O)NCc1cc(NC(=O)C2C(c3ccc(Cl)c(Cl)c3)C2(Cl)Cl)ccc1Cl (centres unmarked) [Compound 71],≤ 40
2,O=C(NCc1cc(NC(=O)C2C(c3cc(F)cc(Cl)c3)C2(Cl)Cl)ccc1Cl)C1CC1 (centres unmarked) [Compound 98],≤ 40
3,CCC(=O)NCc1c(F)ccc(NC(=O)C2C(c3cc(Cl)cc(Cl)c3)C2(Cl)Cl)c1F (centres unmarked) [Compound 28],≤ 40
4,CC(C)CC(=O)NCc1cc(NC(=O)C2C(c3ccc(Cl)c(Cl)c3)C2(Cl)Cl)ccc1Cl (centres unmarked) [Compound 126],≤ 40
5,O=C(Nc1ccc(F)c(CNC(=O)C(F)(F)F)c1F)C1C(c2ccc(F)c(C(F)(F)F)c2)C1(Cl)Cl (centres unmarked) [Compound 140],≤ 40
6,O=C(Nc1ccc(F)c(CNC(=O)C(F)(F)Cl)c1)C1C(c2ccc(F)c(Cl)c2)C1(Cl)Cl (centres unmarked) [Compound 186],≤ 40
7,O=C(NCc1cc(NC(=O)C2C(c3ccc(F)c(Cl)c3)C2(Cl)Cl)ccc1F)C(Cl)Cl (centres unmarked) [Compound 190],≤ 40
8,CC(C)CC(=O)NCc1cc(NC(=O)C2C(c3cc(F)cc(Cl)c3)C2(Cl)Cl)ccc1Cl (centres unmarked) [Compound 127],≤ 40
9,O=C(NCc1c(F)ccc(NC(=O)C2C(c3ccc(F)c(C(F)(F)F)c3)C2(Cl)Cl)c1F)C1CC1 (centres unmarked) [Compound 101],≤ 40
10,O=C(CC(F)(F)F)NCc1cc(NC(=O)C2C(c3cc(F)cc(Cl)c3)C2(Cl)Cl)ccc1Cl (centres unmarked) [Compound 117],≤ 40
11,O=C(Nc1ccc(F)c(CNC(=O)C(F)(F)F)c1)C1C(c2ccc(F)c(Cl)c2)C1(Cl)Cl (centres unmarked) [Compound 152],≤ 40
12,CC(=O)NCc1c(F)ccc(NC(=O)C2C(c3cc(Cl)cc(Cl)c3)C2(Cl)Cl)c1F (centres unmarked) [Compound 23],≤ 40
13,CC(C)C(=O)NCc1cc(NC(=O)C2C(c3cc(Cl)cc(Cl)c3)C2(Cl)Cl)ccc1Cl (centres unmarked) [Compound 53],≤ 40
14,O=C(NCc1cc(NC(=O)C2C(c3ccc(F)c(F)c3)C2(Cl)Cl)ccc1Cl)C1CCC1 (centres unmarked) [Compound 100],≤ 40
15,CCC(=O)NCc1c(F)ccc(NC(=O)C2C(c3ccc(F)c(Cl)c3)C2(Cl)Cl)c1F (centres unmarked) [Compound 165],≤ 40
16,O=C(CC(F)(F)F)NCc1cc(NC(=O)C2C(c3ccc(Cl)c(F)c3)C2(Cl)Cl)ccc1F (centres unmarked) [Compound 130],≤ 40
17,O=C(Nc1ccc(F)c(CNC(=O)C2(F)CC2)c1)C1C(c2ccc(Cl)c(Cl)c2)C1(Cl)Cl (centres unmarked) [Compound 85],≤ 40
18,CC(=O)NCc1cc(NC(=O)C2C(c3cc(Cl)cc(Cl)c3)C2(Cl)Cl)ccc1Cl (centres unmarked) [Compound 57],≤ 40
19,N#CCC(=O)NCc1c(F)ccc(NC(=O)C2C(c3ccc(F)c(C(F)(F)F)c3)C2(Cl)Cl)c1F (centres unmarked) [Compound 103],≤ 40
20,O=C(NCc1cc(NC(=O)C2C(c3cc(Cl)cc(Cl)c3)C2(Cl)Cl)ccc1Cl)C1CCC1 (centres unmarked) [Compound 66],≤ 40
21,CC(=O)NCc1cc(NC(=O)C2C(c3ccc(C(F)(F)F)cc3)C2(Cl)Cl)ccc1Cl (centres unmarked) [Compound 194],≤ 40
22,O=C(NCc1cc(NC(=O)C2C(c3ccc(Cl)c(Cl)c3)C2(Cl)Cl)ccc1Cl)C1CCC1 (centres unmarked) [Compound 65],≤ 40
23,CC(C)C(=O)NCc1c(F)ccc(NC(=O)C2C(c3cc(Cl)cc(Cl)c3)C2(Cl)Cl)c1F (centres unmarked) [Compound 24],≤ 40
24,O=C(NCc1cc(NC(=O)C2C(c3cc(F)cc(F)c3)C2(Cl)Cl)ccc1F)C1CC1 (centres unmarked) [Compound 83],≤ 40
25,O=C(Nc1ccc(Cl)c(CNC(=O)C(F)(F)F)c1)C1C(c2cccc(C(F)(F)F)c2)C1(Cl)Cl (centres unmarked) [Compound 207],≤ 40
26,O=C(NCc1cc(NC(=O)C2C(c3ccc(C(F)(F)F)cc3)C2(Cl)Cl)ccc1Cl)C1CC1 (centres unmarked) [Compound 192],≤ 40

# Same assay, conditions: sprayed at 250 ppm, assessed after 6 days, value is the feeding damage limit
row,Structure (SMILES),control efficacy (40% or less feeding damage and/or 100% mortality) [%]
1,O=C(NCc1cc(NC(=O)C2C(c3ccc4c(c3)OC(F)(F)O4)C2(Cl)Cl)ccc1F)C1CC1 (centres unmarked) [Compound 14],≤ 40
2,CCC(=O)NCc1c(F)ccc(NC(=O)C2C(c3cc(Cl)cc(Cl)c3)C2(Cl)Cl)c1F (centres unmarked) [Compound 28],≤ 40
3,O=C(NCc1cc(NC(=O)C2C(c3ccc(F)c(Cl)c3)C2(Cl)Cl)ccc1F)C(Cl)Cl (centres unmarked) [Compound 190],≤ 40
4,CC(C)C(=O)NCc1cccc(NC(=O)C2C(c3cc(Cl)cc(Cl)c3)C2(Cl)Cl)c1F (centres unmarked) [Compound 21],≤ 40
5,CC(=O)NCc1c(F)ccc(NC(=O)C2C(c3cc(Cl)cc(Cl)c3)C2(Cl)Cl)c1F (centres unmarked) [Compound 23],≤ 40
6,CC(C)C(=O)NCc1cc(NC(=O)C2C(c3cc(Cl)cc(Cl)c3)C2(Cl)Cl)ccc1Cl (centres unmarked) [Compound 53],≤ 40
7,CC(=O)NCc1cc(NC(=O)C2C(c3cc(Cl)cc(Cl)c3)C2(Cl)Cl)ccc1Cl (centres unmarked) [Compound 57],≤ 40
8,CC(=O)NCc1cc(NC(=O)C2C(c3ccc(C(F)(F)F)cc3)C2(Cl)Cl)ccc1Cl (centres unmarked) [Compound 194],≤ 40
9,CC(C)C(=O)NCc1c(F)ccc(NC(=O)C2C(c3cc(Cl)cc(Cl)c3)C2(Cl)Cl)c1F (centres unmarked) [Compound 24],≤ 40
10,O=C(NCc1cc(NC(=O)C2C(c3ccc(C(F)(F)F)cc3)C2(Cl)Cl)ccc1Cl)C1CC1 (centres unmarked) [Compound 192],≤ 40

# System: diamondback moth (Plutella xylostella (L.))
# Assay: Test A: control of diamondback moth, foliar spray on mustard plant
# Assay type: in vivo
# Conditions: sprayed at 50 ppm, assessed after 6 days, value is the feeding damage limit
row,Structure (SMILES),control efficacy (40% or less feeding damage and/or 100% mortality) [%]
1,O=C(NCc1cc(NC(=O)C2C(c3ccc4c(c3)OC(F)(F)O4)C2(Cl)Cl)ccc1F)C1CC1 (centres unmarked) [Compound 14],≤ 40
2,COCC(=O)NCc1cc(NC(=O)C2C(c3ccc(Cl)c(Cl)c3)C2(Cl)Cl)ccc1Cl (centres unmarked) [Compound 71],≤ 40
3,O=C(NCc1cc(NC(=O)C2C(c3cc(F)cc(Cl)c3)C2(Cl)Cl)ccc1Cl)C1CC1 (centres unmarked) [Compound 98],≤ 40
4,CCC(=O)NCc1c(F)ccc(NC(=O)C2C(c3cc(Cl)cc(Cl)c3)C2(Cl)Cl)c1F (centres unmarked) [Compound 28],≤ 40
5,CC(C)CC(=O)NCc1cc(NC(=O)C2C(c3ccc(Cl)c(Cl)c3)C2(Cl)Cl)ccc1Cl (centres unmarked) [Compound 126],≤ 40
6,O=C(Nc1ccc(F)c(CNC(=O)C(F)(F)F)c1F)C1C(c2ccc(F)c(C(F)(F)F)c2)C1(Cl)Cl (centres unmarked) [Compound 140],≤ 40
7,O=C(Nc1ccc(F)c(CNC(=O)C(F)(F)Cl)c1)C1C(c2ccc(F)c(Cl)c2)C1(Cl)Cl (centres unmarked) [Compound 186],≤ 40
8,O=C(NCc1cc(NC(=O)C2C(c3ccc(F)c(Cl)c3)C2(Cl)Cl)ccc1F)C(Cl)Cl (centres unmarked) [Compound 190],≤ 40
9,CC(C)CC(=O)NCc1cc(NC(=O)C2C(c3cc(F)cc(Cl)c3)C2(Cl)Cl)ccc1Cl (centres unmarked) [Compound 127],≤ 40
10,CC(C)C(=O)NCc1cccc(NC(=O)C2C(c3cc(Cl)cc(Cl)c3)C2(Cl)Cl)c1F (centres unmarked) [Compound 21],≤ 40
11,O=C(NCc1c(F)ccc(NC(=O)C2C(c3ccc(F)c(C(F)(F)F)c3)C2(Cl)Cl)c1F)C1CC1 (centres unmarked) [Compound 101],≤ 40
12,O=C(CC(F)(F)F)NCc1cc(NC(=O)C2C(c3cc(F)cc(Cl)c3)C2(Cl)Cl)ccc1Cl (centres unmarked) [Compound 117],≤ 40
13,O=C(Nc1ccc(F)c(CNC(=O)C(F)(F)F)c1)C1C(c2ccc(F)c(Cl)c2)C1(Cl)Cl (centres unmarked) [Compound 152],≤ 40
14,CC(=O)NCc1c(F)ccc(NC(=O)C2C(c3cc(Cl)cc(Cl)c3)C2(Cl)Cl)c1F (centres unmarked) [Compound 23],≤ 40
15,CC(C)C(=O)NCc1cc(NC(=O)C2C(c3cc(Cl)cc(Cl)c3)C2(Cl)Cl)ccc1Cl (centres unmarked) [Compound 53],≤ 40
16,O=C(NCc1cc(NC(=O)C2C(c3ccc(F)c(F)c3)C2(Cl)Cl)ccc1Cl)C1CCC1 (centres unmarked) [Compound 100],≤ 40
17,CCC(=O)NCc1c(F)ccc(NC(=O)C2C(c3ccc(F)c(Cl)c3)C2(Cl)Cl)c1F (centres unmarked) [Compound 165],≤ 40
18,O=C(CC(F)(F)F)NCc1cc(NC(=O)C2C(c3ccc(Cl)c(F)c3)C2(Cl)Cl)ccc1F (centres unmarked) [Compound 130],≤ 40
19,O=C(Nc1ccc(F)c(CNC(=O)C2(F)CC2)c1)C1C(c2ccc(Cl)c(Cl)c2)C1(Cl)Cl (centres unmarked) [Compound 85],≤ 40
20,CC(=O)NCc1cc(NC(=O)C2C(c3cc(Cl)cc(Cl)c3)C2(Cl)Cl)ccc1Cl (centres unmarked) [Compound 57],≤ 40
21,N#CCC(=O)NCc1c(F)ccc(NC(=O)C2C(c3ccc(F)c(C(F)(F)F)c3)C2(Cl)Cl)c1F (centres unmarked) [Compound 103],≤ 40
22,O=C(NCc1cc(NC(=O)C2C(c3cc(Cl)cc(Cl)c3)C2(Cl)Cl)ccc1Cl)C1CCC1 (centres unmarked) [Compound 66],≤ 40
23,CC(=O)NCc1cc(NC(=O)C2C(c3ccc(C(F)(F)F)cc3)C2(Cl)Cl)ccc1Cl (centres unmarked) [Compound 194],≤ 40
24,O=C(NCc1cc(NC(=O)C2C(c3ccc(Cl)c(Cl)c3)C2(Cl)Cl)ccc1Cl)C1CCC1 (centres unmarked) [Compound 65],≤ 40
25,CC(C)C(=O)NCc1c(F)ccc(NC(=O)C2C(c3cc(Cl)cc(Cl)c3)C2(Cl)Cl)c1F (centres unmarked) [Compound 24],≤ 40
26,O=C(NCc1cc(NC(=O)C2C(c3cc(F)cc(F)c3)C2(Cl)Cl)ccc1F)C1CC1 (centres unmarked) [Compound 83],≤ 40
27,O=C(Nc1ccc(Cl)c(CNC(=O)C(F)(F)F)c1)C1C(c2cccc(C(F)(F)F)c2)C1(Cl)Cl (centres unmarked) [Compound 207],≤ 40
28,O=C(NCc1cc(NC(=O)C2C(c3ccc(C(F)(F)F)cc3)C2(Cl)Cl)ccc1Cl)C1CC1 (centres unmarked) [Compound 192],≤ 40

# Same assay, conditions: sprayed at 250 ppm, assessed after 6 days, value is the feeding damage limit
row,Structure (SMILES),control efficacy (40% or less feeding damage and/or 100% mortality) [%]
1,O=C(NCc1cc(NC(=O)C2C(c3ccc4c(c3)OC(F)(F)O4)C2(Cl)Cl)ccc1F)C1CC1 (centres unmarked) [Compound 14],≤ 40
2,CCC(=O)NCc1c(F)ccc(NC(=O)C2C(c3cc(Cl)cc(Cl)c3)C2(Cl)Cl)c1F (centres unmarked) [Compound 28],≤ 40
3,O=C(NCc1cc(NC(=O)C2C(c3ccc(F)c(Cl)c3)C2(Cl)Cl)ccc1F)C(Cl)Cl (centres unmarked) [Compound 190],≤ 40
4,CC(C)C(=O)NCc1cccc(NC(=O)C2C(c3cc(Cl)cc(Cl)c3)C2(Cl)Cl)c1F (centres unmarked) [Compound 21],≤ 40
5,CC(=O)NCc1c(F)ccc(NC(=O)C2C(c3cc(Cl)cc(Cl)c3)C2(Cl)Cl)c1F (centres unmarked) [Compound 23],≤ 40
6,CC(C)C(=O)NCc1cc(NC(=O)C2C(c3cc(Cl)cc(Cl)c3)C2(Cl)Cl)ccc1Cl (centres unmarked) [Compound 53],≤ 40
7,CC(=O)NCc1cc(NC(=O)C2C(c3cc(Cl)cc(Cl)c3)C2(Cl)Cl)ccc1Cl (centres unmarked) [Compound 57],≤ 40
8,CC(=O)NCc1cc(NC(=O)C2C(c3ccc(C(F)(F)F)cc3)C2(Cl)Cl)ccc1Cl (centres unmarked) [Compound 194],≤ 40
9,CC(C)C(=O)NCc1c(F)ccc(NC(=O)C2C(c3cc(Cl)cc(Cl)c3)C2(Cl)Cl)c1F (centres unmarked) [Compound 24],≤ 40
10,O=C(NCc1cc(NC(=O)C2C(c3ccc(C(F)(F)F)cc3)C2(Cl)Cl)ccc1Cl)C1CC1 (centres unmarked) [Compound 192],≤ 40
